Experimental data published in publication doi:10.1101/2024.03.04.583404.

The chains behind the UniProt entries cited, without tags or fusion partners. Where a name states a change or a piece, a line headed by the entry shows the natural chain unless it says otherwise.
UniProt Q21740: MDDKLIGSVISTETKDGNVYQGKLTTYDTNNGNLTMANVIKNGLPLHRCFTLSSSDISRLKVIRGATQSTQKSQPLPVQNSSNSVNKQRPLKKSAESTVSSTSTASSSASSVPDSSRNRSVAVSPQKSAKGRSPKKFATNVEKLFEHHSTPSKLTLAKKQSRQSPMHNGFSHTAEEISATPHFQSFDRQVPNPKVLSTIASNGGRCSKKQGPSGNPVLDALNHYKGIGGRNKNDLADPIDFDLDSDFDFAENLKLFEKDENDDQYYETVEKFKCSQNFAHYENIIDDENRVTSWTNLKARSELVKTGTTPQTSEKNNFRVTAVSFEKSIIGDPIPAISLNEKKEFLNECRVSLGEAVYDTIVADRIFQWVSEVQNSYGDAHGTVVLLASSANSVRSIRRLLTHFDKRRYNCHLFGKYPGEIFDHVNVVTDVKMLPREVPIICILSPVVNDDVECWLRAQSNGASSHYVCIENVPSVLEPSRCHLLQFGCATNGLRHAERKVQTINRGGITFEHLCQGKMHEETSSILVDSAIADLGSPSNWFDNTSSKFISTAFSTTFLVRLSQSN

Target: T1, DCAP-2::3XHA (C. elegans (endogenous in embryos and larvae)) (UniProt O62255)
T1 sequence: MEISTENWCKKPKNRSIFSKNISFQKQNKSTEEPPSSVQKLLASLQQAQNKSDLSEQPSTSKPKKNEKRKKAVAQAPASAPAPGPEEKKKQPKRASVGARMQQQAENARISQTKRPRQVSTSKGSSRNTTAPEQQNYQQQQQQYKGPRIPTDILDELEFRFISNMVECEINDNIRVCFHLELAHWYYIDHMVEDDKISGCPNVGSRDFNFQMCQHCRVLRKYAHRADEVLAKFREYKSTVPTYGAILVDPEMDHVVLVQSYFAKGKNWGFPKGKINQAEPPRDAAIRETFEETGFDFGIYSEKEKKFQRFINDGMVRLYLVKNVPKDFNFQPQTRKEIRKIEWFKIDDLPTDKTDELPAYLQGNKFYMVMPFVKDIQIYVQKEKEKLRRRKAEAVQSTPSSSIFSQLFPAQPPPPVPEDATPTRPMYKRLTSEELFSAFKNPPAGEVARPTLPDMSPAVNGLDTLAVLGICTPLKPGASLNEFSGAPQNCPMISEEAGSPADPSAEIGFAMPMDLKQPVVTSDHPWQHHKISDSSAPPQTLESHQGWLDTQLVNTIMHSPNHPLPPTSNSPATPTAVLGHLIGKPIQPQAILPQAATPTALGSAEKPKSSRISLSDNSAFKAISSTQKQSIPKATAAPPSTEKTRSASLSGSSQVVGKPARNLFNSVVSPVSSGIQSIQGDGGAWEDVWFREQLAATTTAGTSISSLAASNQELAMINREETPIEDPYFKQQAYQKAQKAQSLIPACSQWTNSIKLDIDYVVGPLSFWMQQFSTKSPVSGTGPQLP
Assay: co-IP

In the case of EDC-3 (from UniProt Q21740), the binding was “binds”.

No constants are given. Whether binding was seen depends on the method and setting. Binding seen in cells or lysates may run through a third protein. A result given as binding can be weak or reduced; the word gives no strength.
